According to article PMC2376334, “Penetration of capecitabine and its metabolites into malignant and healthy tissues of patients with advanced breast cancer” (British Journal of Cancer, 2003):

What was measured:
[1] = In vivo probe recovery by retrodialysis; design: species or system human
[2] = In vitro microdialysis recovery; conditions: in vitro microdialysis system; independent of concentration up to 25 μg ml^−1

SMILES | in vivo recovery (range) ([1]; subcutaneous connective tissue) | in vivo recovery (range) ([1]; tumour) | in vitro microdialysis recovery [2]
CCCCCOC(=O)Nc1nc(=O)n([C@@H]2O[C@H](C)[C@@H](O)[C@H]2O)cc1F [Capecitabine] | 13–65% | 11–58% | 51.8%
O=c1[nH]cc(F)c(=O)[nH]1 [FU, 5-fluorouracil] | 12–69% | 13–75% | 72.9%
C[C@H]1O[C@@H](n2cc(F)c(N)nc2=O)[C@H](O)[C@@H]1O [DFCR, 5′-deoxy-5-fluorocytidine] | – | – | 60.7%
C[C@H]1O[C@@H](n2cc(F)c(=O)[nH]c2=O)[C@H](O)[C@@H]1O [DFUR, 5′-deoxy-5-fluorouridine] | – | – | 61.8%
